These are literature values, as cited in publication PMC5962642, “Dynamic imaging of adaptive stress response pathway activation for prediction of drug induced liver injury” (Archives of Toxicology, 2018).

The conditions of series [1]: C-max obtained from FDA or literature; ref per compound (FDA, Dailymed, Xu, O’Brien, Khetani, Regenthal, Gustafsson, Dawson, Ogutu, Patel, Schmidt, Ravic, Keisu, Hu, Wagner); cited from earlier work.
The conditions of series [2]: ref Chen et al. [2016], cited from earlier work; for DILI con. (DILI-concern labeling): FDA DILI labeling; for Hepa. (hepatotoxicity class): FDA labeling in eight classes of hepatotoxicity.

On to `O=C(O)c1cn(C2CC2)c2cc(N3CCNCC3)c(F)cc2c1=O` [Ciprofloxacin], for which, in series [1], the highest concentration (Cmax) is 6.58 µM.

As for `NS(=O)(=O)c1cc(C(=O)O)c(NCc2ccco2)cc1Cl` [Furosemide], the Cmax in series [1] is 3.29 µM.

For `CCCCc1oc2ccccc2c1C(=O)c1cc(I)c(OCCN(CC)CC)c(I)c1` [Amiodarone], in series [2], the “DILI con. (DILI-concern labeling)” value is listed as “Most-DC” and the “Hepa. (hepatotoxicity class)” value was 8.

On to `COc1ccc2cc([C@H](C)C(=O)O)ccc2c1` [Naproxen], for which, in series [2], the “DILI con. (DILI-concern labeling)” value is “Less-DC” and the “Hepa. (hepatotoxicity class)” value is 3.

As a reminder, the Cmax is the highest concentration seen after dosing.
